No constants are given. Whether binding was seen depends on the method and setting. In cells and extracts the contact can be indirect. Some binding calls cover weakened binding; strength is not graded here. Sequences can lack the tags named with a protein.

Chains of the proteins cited; added tags and fusions are not shown. Lines headed by an entry give the natural chain unless they say otherwise; changes in a name come on top.
UniProt Q8N3C0: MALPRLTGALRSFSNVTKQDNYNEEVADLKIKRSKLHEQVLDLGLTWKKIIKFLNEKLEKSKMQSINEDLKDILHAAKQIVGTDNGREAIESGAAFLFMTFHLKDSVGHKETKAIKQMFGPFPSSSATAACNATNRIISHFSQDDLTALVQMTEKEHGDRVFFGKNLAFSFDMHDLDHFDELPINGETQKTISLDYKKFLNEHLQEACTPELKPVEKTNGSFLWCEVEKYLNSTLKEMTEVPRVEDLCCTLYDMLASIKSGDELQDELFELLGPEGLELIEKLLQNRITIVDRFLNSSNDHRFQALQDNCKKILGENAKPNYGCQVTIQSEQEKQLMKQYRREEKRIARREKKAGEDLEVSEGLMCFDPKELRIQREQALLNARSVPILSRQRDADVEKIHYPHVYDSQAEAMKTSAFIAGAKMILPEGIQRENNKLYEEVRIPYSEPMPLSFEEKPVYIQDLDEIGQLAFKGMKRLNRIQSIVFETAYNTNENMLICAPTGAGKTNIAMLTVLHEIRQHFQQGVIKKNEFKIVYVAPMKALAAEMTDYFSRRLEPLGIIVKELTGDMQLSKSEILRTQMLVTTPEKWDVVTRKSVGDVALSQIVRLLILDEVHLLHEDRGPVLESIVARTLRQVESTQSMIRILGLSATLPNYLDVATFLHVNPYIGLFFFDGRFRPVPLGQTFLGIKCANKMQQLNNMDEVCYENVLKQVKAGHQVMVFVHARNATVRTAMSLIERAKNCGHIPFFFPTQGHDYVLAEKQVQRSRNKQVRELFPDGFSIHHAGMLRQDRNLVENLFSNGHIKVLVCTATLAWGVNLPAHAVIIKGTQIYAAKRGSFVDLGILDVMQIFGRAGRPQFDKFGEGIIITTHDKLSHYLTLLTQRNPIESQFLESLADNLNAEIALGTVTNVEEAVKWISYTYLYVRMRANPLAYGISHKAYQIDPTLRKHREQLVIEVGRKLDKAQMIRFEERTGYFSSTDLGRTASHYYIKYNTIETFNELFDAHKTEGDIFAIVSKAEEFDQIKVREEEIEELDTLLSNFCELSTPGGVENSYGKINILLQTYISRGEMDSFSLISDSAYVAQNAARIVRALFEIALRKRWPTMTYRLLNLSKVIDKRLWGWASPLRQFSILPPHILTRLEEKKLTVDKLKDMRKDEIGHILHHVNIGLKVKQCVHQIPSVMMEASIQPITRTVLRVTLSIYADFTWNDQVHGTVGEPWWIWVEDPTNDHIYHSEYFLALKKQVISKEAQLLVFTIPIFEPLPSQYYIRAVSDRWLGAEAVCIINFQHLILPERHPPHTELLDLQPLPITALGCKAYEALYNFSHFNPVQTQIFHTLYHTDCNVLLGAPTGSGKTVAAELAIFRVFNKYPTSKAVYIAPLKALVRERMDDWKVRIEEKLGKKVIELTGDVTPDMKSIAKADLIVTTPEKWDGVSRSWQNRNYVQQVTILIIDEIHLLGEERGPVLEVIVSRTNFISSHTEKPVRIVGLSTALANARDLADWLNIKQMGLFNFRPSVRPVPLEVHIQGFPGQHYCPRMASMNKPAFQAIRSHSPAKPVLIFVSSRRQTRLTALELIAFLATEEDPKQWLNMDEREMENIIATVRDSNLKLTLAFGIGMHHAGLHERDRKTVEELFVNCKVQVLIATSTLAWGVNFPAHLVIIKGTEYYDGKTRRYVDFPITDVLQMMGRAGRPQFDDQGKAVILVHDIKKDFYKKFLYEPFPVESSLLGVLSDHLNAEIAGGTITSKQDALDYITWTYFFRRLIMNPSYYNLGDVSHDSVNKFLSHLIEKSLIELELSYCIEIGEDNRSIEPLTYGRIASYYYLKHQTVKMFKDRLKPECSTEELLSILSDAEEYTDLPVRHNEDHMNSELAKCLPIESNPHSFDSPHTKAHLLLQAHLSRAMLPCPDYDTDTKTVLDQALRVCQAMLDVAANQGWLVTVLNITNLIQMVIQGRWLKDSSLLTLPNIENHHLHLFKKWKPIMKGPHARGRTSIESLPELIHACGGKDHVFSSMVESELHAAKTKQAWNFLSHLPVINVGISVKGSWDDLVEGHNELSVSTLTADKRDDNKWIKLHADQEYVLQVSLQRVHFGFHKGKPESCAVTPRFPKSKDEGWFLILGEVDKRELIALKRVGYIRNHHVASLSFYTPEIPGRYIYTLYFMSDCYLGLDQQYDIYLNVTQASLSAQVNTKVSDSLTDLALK

Experiment [1] has as its target 3FLAG tagged ASCC3 (human) (UniProt Q8N3C0). Briefly: co-IP; Lenti-X 293T lysate, 3FLAG-ASCC3 captured on anti-DYKDDDDK tag antibody beads, washed with 300 mM NaCl, 1% NP-40 buffer, eluted with FLAG peptide.
The target of experiment [2] is ASCC3-K505R ATPase activity deficient variant (human) (UniProt Q8N3C0). Described as above.

B1: HA-ASCC2 (protein, UniProt Q9H1I8 1-757)
chain: MPALPLDQLQITHKDPKTGKLRTSPALHPEQKADRYFVLYKPPPKDNIPALVEEYLERATFVANDLDWLLALPHDKFWCQVIFDETLQKCLDSYLRYVPRKFDEGVASAPEVVDMQKRLHRSVFLTFLRMSTHKESKDHFISPSAFGEILYNNFLFDIPKILDLCVLFGKGNSPLLQKMIGNIFTQQPSYYSDLDETLPTILQVFSNILQHCGLQGDGANTTPQKLEERGRLTPSDMPLLELKDIVLYLCDTCTTLWAFLDIFPLACQTFQKHDFCYRLASFYEAAIPEMESAIKKRRLEDSKLLGDLWQRLSHSRKKLMEIFHIILNQICLLPILESSCDNIQGFIEEFLQIFSSLLQEKRFLRDYDALFPVAEDISLLQQASSVLDETRTAYILQAVESAWEGVDRRKATDAKDPSVIEEPNGEPNGVTVTAEAVSQASSHPENSEEEECMGAAAAVGPAMCGVELDSLISQVKDLLPDLGEGFILACLEYYHYDPEQVINNILEERLAPTLSQLDRNLDREMKPDPTPLLTSRHNVFQNDEFDVFSRDSVDLSRVHKGKSTRKEENTRSLLNDKRAVAAQRQRYEQYSVVVEEVPLQPGESLPYHSVYYEDEYDDTYDGNQVGANDADSDDELISRRPFTIPQVLRTKVPREGQEEDDDDEEDDADEEAPKPDHFVQDPAVLREKAEARRMAFLAKKGYRHDSSTAVAGSPRGHGQSRETTQERRKKEANKATRANHNRRTMADRKRSKGMIPS
As for B1, the binding entry in experiment [1] and in experiment [2] was “binds” throughout.

B2: HA-TRIP4 (protein, UniProt Q15650 1-581)
chain: MAVAGAVSGEPLVHWCTQQLRKTFGLDVSEEIIQYVLSIESAEEIREYVTDLLQGNEGKKGQFIEELITKWQKNDQELISDPLQQCFKKDEILDGQKSGDHLKRGRKKGRNRQEVPAFTEPDTTAEVKTPFDLAKAQENSNSVKKKTKFVNLYTREGQDRLAVLLPGRHPCDCLGQKHKLINNCLICGRIVCEQEGSGPCLFCGTLVCTHEEQDILQRDSNKSQKLLKKLMSGVENSGKVDISTKDLLPHQELRIKSGLEKAIKHKDKLLEFDRTSIRRTQVIDDESDYFASDSNQWLSKLERETLQKREEELRELRHASRLSKKVTIDFAGRKILEEENSLAEYHSRLDETIQAIANGTLNQPLTKLDRSSEEPLGVLVNPNMYQSPPQWVDHTGAASQKKAFRSSGFGLEFNSFQHQLRIQDQEFQEGFDGGWCLSVHQPWASLLVRGIKRVEGRSWYTPHRGRLWIAATAKKPSPQEVSELQATYRLLRGKDVEFPNDYPSGCLLGCVDLIDCLSQKQFKEQFPDISQESDSPFVFICKNPQEMVVKFPIKGNPKIWKLDSKIHQGAKKGLMKQNKAV
Consider B2, for which the binding result in experiment [1] and in experiment [2] was “binds” throughout.

These data come from publication PMC9613687.
